These are yes or no findings as the source states them, for the method shown. Binding seen in cells or lysates may run through a third protein. Some entries that bind do so weakly or less than the wild type. For part of these data: Where a sequence is shown, tags or fusion partners need not be part of it. Values belong to the molecule of their own block, whether it stands above or below them.
Tests used:
[1] = target: Insulinoma-associated 1 (INSM1) (human) (UniProt Q01101); assay: co-IP; 293T cells expressing the indicated constructs, IP by anti-FLAG, pairwise
[2] = target: Insulinoma-associated 1 (INSM1) (human) (UniProt Q01101); assay: co-IP; 293T cells expressing INSM1 and YAP, with TEAD1 co-expressed, IP by anti-FLAG
Myc-Sd (Drosophila) = Myc-Sd (Drosophila) (UniProt P30052); assay: co-IP; Drosophila S2R+ cells transfected with epitope-tagged constructs, IP by anti-FLAG

Protein sequences, listed by entry. Tags and fused reporters are not part of them.
UniProt Q01101: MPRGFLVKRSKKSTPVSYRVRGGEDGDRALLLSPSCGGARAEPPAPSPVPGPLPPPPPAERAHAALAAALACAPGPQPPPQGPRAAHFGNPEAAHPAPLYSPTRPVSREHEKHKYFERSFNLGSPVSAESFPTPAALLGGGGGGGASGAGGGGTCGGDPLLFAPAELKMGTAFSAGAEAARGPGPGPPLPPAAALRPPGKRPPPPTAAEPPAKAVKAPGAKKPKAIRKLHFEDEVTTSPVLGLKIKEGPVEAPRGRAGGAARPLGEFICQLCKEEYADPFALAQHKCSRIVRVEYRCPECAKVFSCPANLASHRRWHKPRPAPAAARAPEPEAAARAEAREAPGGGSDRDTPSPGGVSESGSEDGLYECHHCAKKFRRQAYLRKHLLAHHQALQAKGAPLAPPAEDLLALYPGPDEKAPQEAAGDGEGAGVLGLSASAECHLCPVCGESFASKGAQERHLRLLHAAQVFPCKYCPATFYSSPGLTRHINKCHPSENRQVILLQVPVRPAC
UniProt P30052: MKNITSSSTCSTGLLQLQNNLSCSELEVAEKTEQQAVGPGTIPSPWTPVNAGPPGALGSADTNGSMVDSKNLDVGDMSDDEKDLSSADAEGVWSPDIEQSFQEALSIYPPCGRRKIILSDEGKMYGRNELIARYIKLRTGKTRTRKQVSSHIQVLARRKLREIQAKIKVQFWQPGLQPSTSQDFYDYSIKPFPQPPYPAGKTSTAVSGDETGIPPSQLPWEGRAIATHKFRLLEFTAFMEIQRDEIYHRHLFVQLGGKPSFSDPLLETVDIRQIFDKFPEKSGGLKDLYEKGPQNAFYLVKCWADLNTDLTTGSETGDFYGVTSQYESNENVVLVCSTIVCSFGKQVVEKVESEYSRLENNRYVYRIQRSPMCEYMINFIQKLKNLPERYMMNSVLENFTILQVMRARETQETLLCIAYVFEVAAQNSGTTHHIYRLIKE
UniProt P46937: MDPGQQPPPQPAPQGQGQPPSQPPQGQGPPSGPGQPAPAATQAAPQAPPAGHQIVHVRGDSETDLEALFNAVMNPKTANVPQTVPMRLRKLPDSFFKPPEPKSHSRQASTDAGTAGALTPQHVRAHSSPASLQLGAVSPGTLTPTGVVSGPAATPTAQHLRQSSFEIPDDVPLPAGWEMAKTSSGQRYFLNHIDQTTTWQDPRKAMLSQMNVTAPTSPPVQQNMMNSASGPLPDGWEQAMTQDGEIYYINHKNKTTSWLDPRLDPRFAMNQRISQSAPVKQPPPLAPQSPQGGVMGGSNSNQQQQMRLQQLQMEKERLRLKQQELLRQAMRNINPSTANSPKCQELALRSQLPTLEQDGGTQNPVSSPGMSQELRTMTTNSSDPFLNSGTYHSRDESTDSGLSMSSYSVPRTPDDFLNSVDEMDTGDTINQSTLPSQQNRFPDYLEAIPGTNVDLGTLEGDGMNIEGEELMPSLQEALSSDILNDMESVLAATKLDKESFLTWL

- binding [1]: binds weakly
- binding [2]: binds
Molecule: YAP (from UniProt P46937 1-504)

- binding (Myc-Sd (Drosophila)): binds
B1: HA-Yki (protein, UniProt Q45VV3 1-395)
chain: MLTTMSASSNTNSLIEKEIDDEDMLSPIKSNNLVVRVNQDTDDNLQALFDSVLNPGDAKRPLQLPLRMRKLPNSFFTPPAPSHSRANSADSTYDAGSQSSINIGNKASIVQQPDGQSPIAAIPQLQIQPSPQHSRLAIHHSRARSSPASLQQNYNVRARSDAAAANNPNANPSSQQQPAGPTFPENSAQEFPSGAPASSAIDLDAMNTCMSQDIPMSMQTVHKKQRSYDVISPIQLNRQLGALPPGWEQAKTNDGQIYYLNHTTKSTQWEDPRIQYRQQQQILMAERIKQNDVLQTTKQTTTSTIANNLGPLPDGWEQAVTESGDLYFINHIDRTTSWNDPRMQSGLSVLDCPDNLVSSLQIEDNLCSNLFNDAQAIVNPPSSHKPDDLEWYKIN

From article PMC6430605
